Test results as given in the supplement of paper PMC12067093, “Discovery and optimisation of a covalent ligand for TRIM25 and its application to targeted protein ubiquitination” (Chemical Science, 2025).
Some of the results follow.

By UniProt entry, the sequences of proteins in these tests, tags left out. Where a name states a change or a piece, a line headed by the entry shows the natural chain unless it says otherwise.
UniProt P49815: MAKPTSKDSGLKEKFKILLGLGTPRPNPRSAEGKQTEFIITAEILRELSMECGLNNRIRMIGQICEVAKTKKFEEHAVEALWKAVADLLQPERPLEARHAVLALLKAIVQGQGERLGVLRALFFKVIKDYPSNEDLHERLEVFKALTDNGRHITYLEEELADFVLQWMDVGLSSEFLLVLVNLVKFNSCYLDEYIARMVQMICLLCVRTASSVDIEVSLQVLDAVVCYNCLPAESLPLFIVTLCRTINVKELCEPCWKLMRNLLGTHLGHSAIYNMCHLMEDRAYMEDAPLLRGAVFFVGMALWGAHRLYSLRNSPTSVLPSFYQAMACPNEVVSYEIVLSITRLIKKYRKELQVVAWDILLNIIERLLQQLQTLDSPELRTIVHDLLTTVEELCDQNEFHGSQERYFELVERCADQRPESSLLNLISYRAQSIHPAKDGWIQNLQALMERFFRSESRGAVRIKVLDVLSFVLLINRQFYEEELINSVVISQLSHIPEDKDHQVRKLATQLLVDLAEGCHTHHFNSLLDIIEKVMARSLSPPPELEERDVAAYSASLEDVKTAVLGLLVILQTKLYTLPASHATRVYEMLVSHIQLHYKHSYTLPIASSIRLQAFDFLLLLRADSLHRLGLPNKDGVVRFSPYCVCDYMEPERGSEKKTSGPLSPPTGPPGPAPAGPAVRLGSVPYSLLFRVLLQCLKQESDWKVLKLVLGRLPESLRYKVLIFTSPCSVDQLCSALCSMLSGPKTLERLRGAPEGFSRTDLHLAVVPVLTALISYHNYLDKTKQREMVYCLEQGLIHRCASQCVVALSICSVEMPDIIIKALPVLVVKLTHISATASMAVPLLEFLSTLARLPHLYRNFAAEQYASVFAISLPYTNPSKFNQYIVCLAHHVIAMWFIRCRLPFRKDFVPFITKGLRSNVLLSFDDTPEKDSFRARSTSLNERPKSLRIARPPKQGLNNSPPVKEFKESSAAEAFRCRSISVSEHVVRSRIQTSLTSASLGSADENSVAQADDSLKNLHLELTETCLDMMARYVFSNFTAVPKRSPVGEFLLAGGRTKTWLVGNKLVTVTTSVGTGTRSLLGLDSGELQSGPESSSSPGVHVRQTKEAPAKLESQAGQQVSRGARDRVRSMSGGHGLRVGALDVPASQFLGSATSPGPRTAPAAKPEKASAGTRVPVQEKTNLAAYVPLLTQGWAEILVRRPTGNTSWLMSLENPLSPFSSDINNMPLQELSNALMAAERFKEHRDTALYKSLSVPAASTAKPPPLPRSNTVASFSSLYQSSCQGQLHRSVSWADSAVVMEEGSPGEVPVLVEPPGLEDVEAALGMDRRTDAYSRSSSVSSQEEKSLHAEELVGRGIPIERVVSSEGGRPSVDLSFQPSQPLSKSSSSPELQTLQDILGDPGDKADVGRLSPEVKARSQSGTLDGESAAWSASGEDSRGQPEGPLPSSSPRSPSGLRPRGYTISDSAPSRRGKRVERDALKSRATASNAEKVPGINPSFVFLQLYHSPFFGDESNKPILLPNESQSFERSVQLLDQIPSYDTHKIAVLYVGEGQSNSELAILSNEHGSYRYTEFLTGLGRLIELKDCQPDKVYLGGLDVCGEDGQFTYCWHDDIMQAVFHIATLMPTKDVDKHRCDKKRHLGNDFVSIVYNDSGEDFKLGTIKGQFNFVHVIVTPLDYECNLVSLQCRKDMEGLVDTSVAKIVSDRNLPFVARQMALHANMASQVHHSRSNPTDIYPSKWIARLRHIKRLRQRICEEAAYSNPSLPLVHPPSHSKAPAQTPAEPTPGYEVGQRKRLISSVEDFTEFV
UniProt Q9NXH9: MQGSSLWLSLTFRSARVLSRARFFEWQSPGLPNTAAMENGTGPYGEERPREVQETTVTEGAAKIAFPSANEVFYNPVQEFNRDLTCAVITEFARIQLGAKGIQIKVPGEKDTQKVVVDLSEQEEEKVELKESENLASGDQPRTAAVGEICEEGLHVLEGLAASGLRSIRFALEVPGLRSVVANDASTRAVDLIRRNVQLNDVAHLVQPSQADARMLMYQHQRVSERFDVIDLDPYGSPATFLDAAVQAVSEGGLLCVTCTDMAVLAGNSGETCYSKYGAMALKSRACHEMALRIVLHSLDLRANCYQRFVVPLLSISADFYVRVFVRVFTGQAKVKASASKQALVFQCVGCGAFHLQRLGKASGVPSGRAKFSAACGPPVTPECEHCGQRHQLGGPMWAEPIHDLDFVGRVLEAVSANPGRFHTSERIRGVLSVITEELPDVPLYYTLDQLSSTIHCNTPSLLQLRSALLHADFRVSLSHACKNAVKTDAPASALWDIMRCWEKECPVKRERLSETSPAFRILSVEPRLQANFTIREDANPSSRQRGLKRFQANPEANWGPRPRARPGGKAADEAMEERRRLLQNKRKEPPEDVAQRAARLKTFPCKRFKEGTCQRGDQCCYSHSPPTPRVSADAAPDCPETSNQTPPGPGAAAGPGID
UniProt Q9Y4A5, whole entry, looked up: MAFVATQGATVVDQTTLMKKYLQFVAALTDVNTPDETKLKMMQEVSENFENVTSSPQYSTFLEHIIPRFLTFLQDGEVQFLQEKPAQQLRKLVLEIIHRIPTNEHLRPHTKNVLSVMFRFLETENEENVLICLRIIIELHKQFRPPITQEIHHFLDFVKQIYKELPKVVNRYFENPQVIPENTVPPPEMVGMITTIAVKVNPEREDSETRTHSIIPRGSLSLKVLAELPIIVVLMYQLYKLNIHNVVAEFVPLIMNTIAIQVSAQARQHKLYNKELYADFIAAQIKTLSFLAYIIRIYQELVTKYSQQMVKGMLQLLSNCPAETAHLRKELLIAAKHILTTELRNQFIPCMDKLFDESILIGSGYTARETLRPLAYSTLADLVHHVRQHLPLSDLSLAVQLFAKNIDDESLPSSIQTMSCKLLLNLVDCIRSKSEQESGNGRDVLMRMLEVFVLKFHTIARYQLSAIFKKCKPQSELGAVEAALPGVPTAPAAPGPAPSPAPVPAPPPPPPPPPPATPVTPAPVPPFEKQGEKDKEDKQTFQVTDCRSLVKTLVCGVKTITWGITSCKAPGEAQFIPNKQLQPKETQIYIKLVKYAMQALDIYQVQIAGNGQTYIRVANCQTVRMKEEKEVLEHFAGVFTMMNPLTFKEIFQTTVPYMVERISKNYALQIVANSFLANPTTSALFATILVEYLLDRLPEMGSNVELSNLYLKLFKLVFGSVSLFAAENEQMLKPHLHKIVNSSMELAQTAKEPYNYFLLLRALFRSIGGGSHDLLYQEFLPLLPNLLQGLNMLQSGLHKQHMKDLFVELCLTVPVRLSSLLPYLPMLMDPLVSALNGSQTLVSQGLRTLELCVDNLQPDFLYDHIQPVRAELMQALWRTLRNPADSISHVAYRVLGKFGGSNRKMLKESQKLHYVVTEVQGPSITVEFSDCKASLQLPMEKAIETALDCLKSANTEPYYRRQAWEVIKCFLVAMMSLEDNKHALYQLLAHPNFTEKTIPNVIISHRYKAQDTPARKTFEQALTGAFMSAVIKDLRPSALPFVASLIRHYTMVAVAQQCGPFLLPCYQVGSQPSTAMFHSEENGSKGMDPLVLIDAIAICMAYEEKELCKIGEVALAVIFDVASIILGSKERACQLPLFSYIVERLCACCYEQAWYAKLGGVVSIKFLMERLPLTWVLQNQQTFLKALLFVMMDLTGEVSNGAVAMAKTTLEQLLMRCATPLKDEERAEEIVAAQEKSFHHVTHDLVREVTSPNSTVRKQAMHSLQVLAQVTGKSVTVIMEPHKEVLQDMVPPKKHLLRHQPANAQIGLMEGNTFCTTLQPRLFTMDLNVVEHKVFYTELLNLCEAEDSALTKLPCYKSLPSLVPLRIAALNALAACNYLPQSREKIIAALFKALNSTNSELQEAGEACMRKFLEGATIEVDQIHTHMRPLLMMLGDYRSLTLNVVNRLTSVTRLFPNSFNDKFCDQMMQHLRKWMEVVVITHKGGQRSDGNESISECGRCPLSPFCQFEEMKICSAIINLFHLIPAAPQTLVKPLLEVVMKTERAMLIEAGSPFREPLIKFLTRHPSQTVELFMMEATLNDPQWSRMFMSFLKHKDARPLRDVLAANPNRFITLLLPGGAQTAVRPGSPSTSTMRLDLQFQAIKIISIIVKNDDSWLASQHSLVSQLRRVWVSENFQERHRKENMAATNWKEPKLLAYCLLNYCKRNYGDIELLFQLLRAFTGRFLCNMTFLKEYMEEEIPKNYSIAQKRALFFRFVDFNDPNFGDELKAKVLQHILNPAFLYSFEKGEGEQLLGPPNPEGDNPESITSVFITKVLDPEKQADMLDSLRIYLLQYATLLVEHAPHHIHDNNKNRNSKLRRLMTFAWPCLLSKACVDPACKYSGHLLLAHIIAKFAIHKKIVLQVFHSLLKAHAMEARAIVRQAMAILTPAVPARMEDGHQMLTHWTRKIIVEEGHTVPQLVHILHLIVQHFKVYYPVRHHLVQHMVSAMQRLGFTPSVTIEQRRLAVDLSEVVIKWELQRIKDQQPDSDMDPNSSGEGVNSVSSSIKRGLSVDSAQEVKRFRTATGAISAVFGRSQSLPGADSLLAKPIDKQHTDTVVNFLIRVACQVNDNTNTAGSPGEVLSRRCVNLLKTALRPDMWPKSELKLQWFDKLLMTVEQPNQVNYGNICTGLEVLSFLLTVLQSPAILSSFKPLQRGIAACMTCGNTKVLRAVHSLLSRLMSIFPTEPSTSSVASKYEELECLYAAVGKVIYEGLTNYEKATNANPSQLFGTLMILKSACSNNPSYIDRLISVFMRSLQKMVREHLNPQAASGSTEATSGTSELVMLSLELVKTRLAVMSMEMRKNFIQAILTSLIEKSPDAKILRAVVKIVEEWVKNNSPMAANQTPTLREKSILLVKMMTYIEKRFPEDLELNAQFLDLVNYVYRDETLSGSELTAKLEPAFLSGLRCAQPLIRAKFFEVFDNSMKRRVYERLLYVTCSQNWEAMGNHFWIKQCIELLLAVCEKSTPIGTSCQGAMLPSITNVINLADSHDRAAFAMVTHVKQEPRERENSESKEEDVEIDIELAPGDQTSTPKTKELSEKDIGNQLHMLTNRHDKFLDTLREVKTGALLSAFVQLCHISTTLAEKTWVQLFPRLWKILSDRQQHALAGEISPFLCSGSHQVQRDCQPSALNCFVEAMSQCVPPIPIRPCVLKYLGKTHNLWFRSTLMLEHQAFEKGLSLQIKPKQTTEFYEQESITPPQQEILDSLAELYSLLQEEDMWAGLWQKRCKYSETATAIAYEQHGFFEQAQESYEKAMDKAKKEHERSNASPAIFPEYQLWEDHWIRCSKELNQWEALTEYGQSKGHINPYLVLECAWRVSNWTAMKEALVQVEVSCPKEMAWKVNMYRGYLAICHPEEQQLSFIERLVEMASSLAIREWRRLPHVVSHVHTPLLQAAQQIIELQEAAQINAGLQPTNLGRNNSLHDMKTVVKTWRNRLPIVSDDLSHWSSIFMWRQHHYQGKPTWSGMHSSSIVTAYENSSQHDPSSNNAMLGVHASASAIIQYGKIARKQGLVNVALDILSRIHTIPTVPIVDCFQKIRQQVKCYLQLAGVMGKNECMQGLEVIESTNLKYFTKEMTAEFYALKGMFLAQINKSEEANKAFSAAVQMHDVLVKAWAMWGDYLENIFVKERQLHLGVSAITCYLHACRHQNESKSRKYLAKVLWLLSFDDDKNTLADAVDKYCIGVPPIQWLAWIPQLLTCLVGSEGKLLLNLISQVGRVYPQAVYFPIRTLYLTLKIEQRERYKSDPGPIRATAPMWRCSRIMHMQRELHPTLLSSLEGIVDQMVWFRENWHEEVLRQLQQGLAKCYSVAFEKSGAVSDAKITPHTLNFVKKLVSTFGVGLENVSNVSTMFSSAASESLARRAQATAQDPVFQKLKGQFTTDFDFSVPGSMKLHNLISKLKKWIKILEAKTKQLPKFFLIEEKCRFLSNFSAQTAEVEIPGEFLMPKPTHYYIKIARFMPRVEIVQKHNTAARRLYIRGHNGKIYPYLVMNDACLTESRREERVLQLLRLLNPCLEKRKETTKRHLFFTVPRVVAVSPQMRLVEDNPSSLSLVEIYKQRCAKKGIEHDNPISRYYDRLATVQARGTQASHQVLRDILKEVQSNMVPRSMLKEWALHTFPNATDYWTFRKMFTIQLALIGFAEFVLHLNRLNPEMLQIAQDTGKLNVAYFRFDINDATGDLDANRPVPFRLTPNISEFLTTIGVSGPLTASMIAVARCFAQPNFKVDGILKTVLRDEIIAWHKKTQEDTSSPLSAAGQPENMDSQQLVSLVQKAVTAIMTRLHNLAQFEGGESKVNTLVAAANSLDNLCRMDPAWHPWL

Compound: CC1Cc2ccccc2N1C(=O)C1CCCN(C1)C(=O)CCl (mixture of isomers) [TRIM25 ligand 11 (diastereomer mixture)]
Assay: probe-labelled cysteine peptide fold change vs DMSO (competition) (log2 fold change); higher = less target engagement (more negative = stronger competition)
Conditions: THP-1, incubation time: 4 h
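Note: competitive chemoproteomic profiling in live THP-1 cells with an iodoacetamide desthiobiotin (IA-DTB) probe, comparing probe-labelled peptide intensities in compound-treated cells against DMSO-treated controls.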

Target | probe-labelled cysteine peptide fold change (10 µM) | probe-labelled cysteine peptide fold change (50 µM)
TSC2_P49815_395_TIVHDLLTTVEELCDQNEFHGSQER (UniProt P49815) | 0.427 | -0.0548
TTC39C_Q8N584_463_ALPNCSFPNLQR (UniProt Q8N584) | 0.0135 | 0.131
TRMT1_Q9NXH9_620+621_GDQCCYSHSPPTPR (UniProt Q9NXH9) | 0.00833 | -0.313
TTC27_Q6P3X3_549_EFQECVECFER (UniProt Q6P3X3) | 0.0728 | 0.188
TTC7A_Q9ULT0_733_EAGFCIQEAAGLFPTSHSVLYMR (UniProt Q9ULT0) | -0.0283 | -0.206
TSEN2_Q8NCE0_439_EMESPECMK (UniProt Q8NCE0) | -0.078 | -0.118
TTC5_Q8N0Z6_125_KGDVAAAHTCFSGALTHCR (UniProt Q8N0Z6) | 0.0196 | 0.225
TUT4_Q5TAX3_394_VITTFLPECSLR (UniProt Q5TAX3) | -0.149 | -0.0886
TTF2_Q9UNY4_50_ATDIPVSHCLLHEDFVVELQGLLLPQDKK (UniProt Q9UNY4) | -0.0432 | 0.0515
TRMT61B_Q9BVS5_396_ISEVIVRDWLVCLAK (UniProt Q9BVS5) | -0.0508 | 0.0518
TRRAP_Q9Y4A5_1879_ACVDPACK (UniProt Q9Y4A5) | 0.175 | 0.172
TTC14_Q96N46_371_AIEDFELALENCPTHR (UniProt Q96N46) | 0.456 | 0.356
TRPV2_Q9Y5S1_332_KFTEWCYGPVR (UniProt Q9Y5S1) | 0.0298 | -0.129
TRMT1_Q9NXH9_387_FSAACGPPVTPECEHCGQR (UniProt Q9NXH9) | -0.00524 | -0.111
TSR1_Q2NL82_618_AKEELIFHCGFR (UniProt Q2NL82) | 0.00999 | 0.0707
TSNAX_Q99598_257_VENACYALK (UniProt Q99598) | -0.025 | -0.0763
